PubChem BioAssay AID743402 (Broad Institute, 2014)
In all, about 1,200 compounds went through this assay and about 140 (12%) were called active.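 Rule for the calls: active = fitted curve falls past -35% activity change at a dose under twice the top valid dose, in every replicate test; inconclusive = replicate tests disagree on the call; inactive = the rest, including activity in the opposite direction.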 Most of the strongest results are missing from this list.

Experiment: restoration of mutant CFTR halide transport – FRT cells, YFP quenching, cherry-pick, dose response (AID 743402);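 note: compounds act as correctors raising surface CFTR-F508del before acute activation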
Details: FRT CFTR-F508del YFP iodide quenching, 24 h, channel opened with forskolin and a potentiator; at 26 µM (top of the series) unless noted

Activity change, negative = more quenching (active), inactive:
COc1ccc(C)cc1NC(=O)CNC(c1ccccc1)c1ccc(C)cc1 (centres undefined) -3.33%
Cc1ccc(-c2ccc3c(c2)O[C@H](CN(C)Cc2ccccn2)[C@@H](C)CN([C@H](C)CO)S3(=O)=O)cc1 -7.14%
CN(CCOc1ccc(Cl)cc1)C(=O)c1cccc(S(=O)(=O)N2CCN(c3ccccc3)CC2)c1 12.5%
COc1cc(SC)ccc1C(=O)N1CCN(c2ccccc2OC)CC1 15.6%
COc1cccc2cc(C(=O)NCCN3CCOCC3)c(=O)oc12 6.67%
CCCC(=O)NC(c1ccc(N(C)C)cc1)c1ccc2cccnc2c1O (centres undefined) 10.7%
Cc1ccc(S(=O)(=O)N2CCN(C(=O)CN(Cc3ccco3)Cc3cccs3)CC2)cc1 13.4%
Cc1ccc(NC(=O)COc2ccc(Br)cc2CO)cc1S(=O)(=O)N1CCOCC1 18.1%
COC(=O)CSC1=C(C#N)C(c2ccc(C)o2)CC(=O)N1 (centres undefined) -3.33%
Nc1sc(-c2ccccc2)cc1-c1n[nH]c(=S)n1C1CCCCC1 0%
COc1cc(-c2cnc3c(NC=O)cc(-c4cccc(C(F)(F)F)c4)cn23)cc(OC)c1OC 18.8%
CCCCC(=NCCc1c(C)[nH]c2ccccc12)C1=C(O)CC(c2ccccc2)CC1=O (centres undefined) 16.4%
Cc1cc2c(cc(C(=O)OC(C)C(=O)NCc3ccc(F)cc3)n2C)o1 (centres undefined) 26.7%
Cc1cnc(NC(=O)CCc2ccccc2)s1 -10%
CC(C)(C)c1cc(C(=O)NN)n(Cc2ccc(Cl)cc2Cl)n1 6.67%
C#Cc1ccc(NC(=O)C2(C)CCN2C(=O)c2cc(C)n(C)n2)cc1 (centres undefined) 16.7%
O=C(CSc1nnc(Cn2c(=O)sc3ccccc32)n1-c1ccccc1)NCc1ccco1 10%
O=C(Nc1cc(F)ccc1F)N1CC(=O)N2[C@@H](CO)[C@H](c3ccc(C#CC4CCCCC4)cc3)[C@@H]2C1 6.46%
Cc1ccc(N(C)S(=O)(=O)c2ccc(-c3cnc(C4CC4)o3)cc2)cc1 6.67%
CCCNC(=O)N1C[C@@H]2[C@H](c3ccccc31)[C@H](CO)N2Cc1ccc(OC)cc1 0%
O=C(COC(=O)C1CCC1)Nc1cc(S(=O)(=O)N2CCOCC2)ccc1Cl 13.9%
CCOc1ccc2[nH]c(C(=O)N/N=C/c3ccc(OC)cc3)cc2c1 -10%
CO/N=C\CC(=O)Nc1ccc(Cl)cc1Cl -3.12%
C[C@@H]1CN([C@@H](C)CO)C(=O)c2cccc(NC(=O)NC3CCCCC3)c2O[C@@H]1CN(C)Cc1ccc(Cl)c(Cl)c1 14.3%
Cc1ccc(S(=O)(=O)N[C@H](C(=O)OCC(=O)NC(=O)C2CCCCC2)C(C)C)cc1 12.9%
COc1ccc(C2c3ccc4ccccc4c3Oc3ncn(CCCO)c(=N)c32)cc1OC (centres undefined) -6.46%
N#CC1=C(N)OC2=C(CCc3ccccc32)C1c1ccccc1Cl (centres undefined) -10%
Oc1c(Cl)cc(CN2CCOCC2)c2cccnc12 -3.85%
CC(C)(C)C(=O)Nc1ccc(S(=O)(=O)NC2=NCCCCC2)cc1 -3.12%
O=C(Nc1cccc(C2=NCCN2)c1)Nc1cccc(C2=NCCN2)c1 0%
Cc1cc(C(=O)NNC(=O)c2ccc(Cl)c(S(N)(=O)=O)c2)c(C)o1 18.1%
CCc1ccccc1N(C)S(=O)(=O)c1ccc(-c2cc(C)no2)s1 5.05%
CCCCN(C(=O)c1cc(S(=O)(=O)N2CCCCC2)ccc1Cl)c1c(N)n(CC(C)C)c(=O)[nH]c1=O 10%
COc1ccc(NS(=O)(=O)c2cc(NC(=O)Cc3c(F)cccc3Cl)ccc2OC)cc1 22.7%
Cc1nn2cc(-c3cccc(Cl)c3)cnc2c1Br 9.58%
CC1(C(=O)NCc2ccccc2)Cc2c(-c3ccc(C(N)=O)cc3)ccnc2O1 (centres undefined) -3.33%
COc1cc(/C=C/C(=O)c2ccc3c(c2)OCO3)cc(Cl)c1O -24%
CCOC1=C2CN(S(=O)(=O)c3ccc(C)cc3)CC[C@@H]2N(S(=O)(=O)c2ccc(C)cc2)[C@H](c2ccccc2)C1 -26.7%
COc1ccc(S(=O)(=O)Nc2cccc3ccc(O)cc23)cc1 3.12%
CCN(CC)c1ccc2c(cc1=O)[C@@H](NC)CCc1cc(OC)c(OC)c(OC)c1-2 10%
O=C(Nc1ccc(Br)cn1)c1cccc2ccccc12 -20%
COc1cccc(S(=O)(=O)N(C)C[C@@H]2Oc3cc(C4=CCCC4)ccc3S(=O)(=O)N([C@@H](C)CO)C[C@H]2C)c1 5.3%
O=S(=O)(c1ccc(OCc2ccc(Br)cc2)cc1)N1CCOCC1 17.9%
CC(=O)Nc1ccc(Nc2c3ccccc3nc3ccccc23)cc1 -6.25%
CC1CN(S(=O)(=O)c2ccc(C(=O)N3CCc4ccccc43)cc2)CC(C)O1 (centres undefined) 10%
CC(C)Nc1ccc(Nc2ccnc3cc4ccccc4cc23)cc1 -20%
COc1ccc2c3c([nH]c2c1)[C@H](CO)N(S(C)(=O)=O)CC31CCN(Cc2cccc(F)c2)CC1 -6.46%
O=C(CN1CCOc2ccccc21)NCc1ccc(Cl)cc1 10%
O=C(CNC1CCCCC1)NN=C(c1ccccc1)c1ccccc1 13.9%
CN(CC(=O)Nc1ccc(Cl)c(C(F)(F)F)c1)C(=O)CCN1C(=O)C2CCCCC2C1=O (centres undefined) 12.9%
COc1ccccc1C#Cc1ccc2c(c1)O[C@H](CN(C)Cc1cccnc1)[C@H](C)CN([C@@H](C)CO)S2(=O)=O 13.8%
CC(C)CC#Cc1ccc([C@@H]2[C@@H](CO)N3CCCCN(C(=O)NC4CCCC4)C[C@H]23)cc1 3.12%
Brc1ccc2c(c1)C(C1=NCCN1)c1ccccc1CS2 (centres undefined) 23.3%
CN1c2ccc(-c3ccc(C#N)cc3)cc2[C@H]2[C@H](CCN2S(=O)(=O)c2cccc(F)c2)[C@@H]1CO 3.57%

Quoted from the results shown (2 entries):
Activity change, negative = more quenching (active), inactive:
COc1cc(/C=C/C(=O)c2ccc3c(c2)OCO3)cc(Cl)c1O -24%
CCOC1=C2CN(S(=O)(=O)c3ccc(C)cc3)CC[C@@H]2N(S(=O)(=O)c2ccc(C)cc2)[C@H](c2ccccc2)C1 -26.7%
